{
  "sequences": {"note": "Chains of the proteins cited; added tags and fusions are not shown. Lines headed by an entry give the natural chain unless they say otherwise; changes in a name come on top.", "UniProt Q9H1K0": "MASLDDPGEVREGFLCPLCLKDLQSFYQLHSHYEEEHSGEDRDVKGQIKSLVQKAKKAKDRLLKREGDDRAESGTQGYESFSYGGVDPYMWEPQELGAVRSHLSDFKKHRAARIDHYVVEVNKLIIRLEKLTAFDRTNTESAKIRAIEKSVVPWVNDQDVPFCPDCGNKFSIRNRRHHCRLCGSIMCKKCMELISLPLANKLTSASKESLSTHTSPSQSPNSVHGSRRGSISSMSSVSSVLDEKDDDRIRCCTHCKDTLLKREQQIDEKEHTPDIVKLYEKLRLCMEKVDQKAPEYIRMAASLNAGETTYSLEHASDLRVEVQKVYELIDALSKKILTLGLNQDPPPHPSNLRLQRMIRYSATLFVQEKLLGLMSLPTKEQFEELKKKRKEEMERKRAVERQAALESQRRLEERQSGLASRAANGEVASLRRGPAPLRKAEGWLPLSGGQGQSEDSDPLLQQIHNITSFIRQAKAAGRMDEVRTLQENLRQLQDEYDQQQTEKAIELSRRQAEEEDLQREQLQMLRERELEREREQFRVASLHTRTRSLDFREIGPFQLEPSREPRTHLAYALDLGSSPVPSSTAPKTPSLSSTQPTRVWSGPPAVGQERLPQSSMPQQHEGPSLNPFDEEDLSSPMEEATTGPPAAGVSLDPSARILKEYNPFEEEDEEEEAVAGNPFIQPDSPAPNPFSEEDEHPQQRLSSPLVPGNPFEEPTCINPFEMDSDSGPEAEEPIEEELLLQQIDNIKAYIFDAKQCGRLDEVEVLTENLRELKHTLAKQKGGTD", "UniProt Q9Y2Z4": "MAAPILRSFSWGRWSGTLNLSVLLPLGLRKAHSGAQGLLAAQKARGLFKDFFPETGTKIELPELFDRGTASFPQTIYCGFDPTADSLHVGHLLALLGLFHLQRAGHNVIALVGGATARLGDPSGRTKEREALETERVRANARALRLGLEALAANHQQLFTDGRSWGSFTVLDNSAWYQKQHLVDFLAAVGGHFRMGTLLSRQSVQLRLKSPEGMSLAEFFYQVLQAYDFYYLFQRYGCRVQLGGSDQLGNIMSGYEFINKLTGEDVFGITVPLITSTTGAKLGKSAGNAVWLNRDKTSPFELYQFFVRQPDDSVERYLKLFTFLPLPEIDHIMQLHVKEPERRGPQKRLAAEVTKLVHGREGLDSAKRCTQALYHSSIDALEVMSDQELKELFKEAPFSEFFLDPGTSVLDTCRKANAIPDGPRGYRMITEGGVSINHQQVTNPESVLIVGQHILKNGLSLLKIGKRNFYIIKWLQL", "UniProt Q8N9V3": "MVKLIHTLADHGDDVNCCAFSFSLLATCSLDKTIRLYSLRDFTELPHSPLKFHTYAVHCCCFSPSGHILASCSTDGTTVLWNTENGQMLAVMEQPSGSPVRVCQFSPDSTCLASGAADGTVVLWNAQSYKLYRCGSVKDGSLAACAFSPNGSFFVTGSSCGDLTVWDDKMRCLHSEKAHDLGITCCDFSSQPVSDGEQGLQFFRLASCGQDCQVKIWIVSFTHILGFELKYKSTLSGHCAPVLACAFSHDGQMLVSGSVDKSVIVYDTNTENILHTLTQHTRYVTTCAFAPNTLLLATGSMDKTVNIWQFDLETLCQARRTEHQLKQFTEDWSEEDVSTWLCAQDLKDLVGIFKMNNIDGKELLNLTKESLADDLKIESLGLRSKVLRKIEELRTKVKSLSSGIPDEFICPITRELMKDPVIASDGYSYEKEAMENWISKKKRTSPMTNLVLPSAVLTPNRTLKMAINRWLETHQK", "UniProt P51811": "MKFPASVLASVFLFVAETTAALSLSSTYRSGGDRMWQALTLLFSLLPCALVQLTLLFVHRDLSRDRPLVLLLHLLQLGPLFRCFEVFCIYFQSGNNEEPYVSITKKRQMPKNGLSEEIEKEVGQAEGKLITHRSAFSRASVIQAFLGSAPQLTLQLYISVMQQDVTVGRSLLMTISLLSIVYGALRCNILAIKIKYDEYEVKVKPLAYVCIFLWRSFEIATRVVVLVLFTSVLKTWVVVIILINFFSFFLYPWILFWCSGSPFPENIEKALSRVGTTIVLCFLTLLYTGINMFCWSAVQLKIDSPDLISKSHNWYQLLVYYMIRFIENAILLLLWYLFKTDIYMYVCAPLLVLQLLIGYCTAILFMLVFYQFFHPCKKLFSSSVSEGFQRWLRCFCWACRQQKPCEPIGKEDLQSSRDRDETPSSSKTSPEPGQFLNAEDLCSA", "UniProt Q5MNZ6": "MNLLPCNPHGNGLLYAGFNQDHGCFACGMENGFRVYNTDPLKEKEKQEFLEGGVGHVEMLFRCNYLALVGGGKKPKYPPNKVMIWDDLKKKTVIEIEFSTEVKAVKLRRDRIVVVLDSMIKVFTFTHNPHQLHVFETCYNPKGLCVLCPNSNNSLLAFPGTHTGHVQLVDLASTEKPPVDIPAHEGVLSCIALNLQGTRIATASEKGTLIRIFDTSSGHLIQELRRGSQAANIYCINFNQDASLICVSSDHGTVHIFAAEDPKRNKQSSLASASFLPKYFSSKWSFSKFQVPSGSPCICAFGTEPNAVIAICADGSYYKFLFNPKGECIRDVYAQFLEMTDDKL", "UniProt Q9UGR2": "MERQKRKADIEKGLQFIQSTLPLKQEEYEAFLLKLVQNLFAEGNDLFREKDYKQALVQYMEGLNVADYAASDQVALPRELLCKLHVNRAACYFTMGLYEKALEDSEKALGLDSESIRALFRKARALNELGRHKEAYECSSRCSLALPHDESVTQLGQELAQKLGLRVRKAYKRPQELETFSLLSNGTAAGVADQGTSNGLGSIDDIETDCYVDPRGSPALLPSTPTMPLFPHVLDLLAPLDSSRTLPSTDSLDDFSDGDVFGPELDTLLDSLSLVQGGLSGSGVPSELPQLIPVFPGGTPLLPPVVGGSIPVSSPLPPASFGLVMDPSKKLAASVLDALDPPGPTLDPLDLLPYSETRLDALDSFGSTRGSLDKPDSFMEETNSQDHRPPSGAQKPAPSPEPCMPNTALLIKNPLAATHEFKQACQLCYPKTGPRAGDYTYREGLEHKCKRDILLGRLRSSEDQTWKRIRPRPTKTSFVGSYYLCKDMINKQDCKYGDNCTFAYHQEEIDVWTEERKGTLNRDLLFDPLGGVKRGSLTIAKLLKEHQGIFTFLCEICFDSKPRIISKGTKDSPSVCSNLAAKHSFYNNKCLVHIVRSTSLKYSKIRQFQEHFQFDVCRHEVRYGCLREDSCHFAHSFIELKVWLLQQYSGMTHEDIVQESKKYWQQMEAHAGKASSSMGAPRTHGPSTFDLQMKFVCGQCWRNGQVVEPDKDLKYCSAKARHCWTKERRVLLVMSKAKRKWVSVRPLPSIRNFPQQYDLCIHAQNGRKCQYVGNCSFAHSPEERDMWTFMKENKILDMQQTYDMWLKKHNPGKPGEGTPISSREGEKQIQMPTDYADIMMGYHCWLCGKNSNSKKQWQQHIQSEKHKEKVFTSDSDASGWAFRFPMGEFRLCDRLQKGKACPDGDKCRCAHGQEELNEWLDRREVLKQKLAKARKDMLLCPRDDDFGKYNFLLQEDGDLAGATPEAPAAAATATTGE", "UniProt Q5T7W0": "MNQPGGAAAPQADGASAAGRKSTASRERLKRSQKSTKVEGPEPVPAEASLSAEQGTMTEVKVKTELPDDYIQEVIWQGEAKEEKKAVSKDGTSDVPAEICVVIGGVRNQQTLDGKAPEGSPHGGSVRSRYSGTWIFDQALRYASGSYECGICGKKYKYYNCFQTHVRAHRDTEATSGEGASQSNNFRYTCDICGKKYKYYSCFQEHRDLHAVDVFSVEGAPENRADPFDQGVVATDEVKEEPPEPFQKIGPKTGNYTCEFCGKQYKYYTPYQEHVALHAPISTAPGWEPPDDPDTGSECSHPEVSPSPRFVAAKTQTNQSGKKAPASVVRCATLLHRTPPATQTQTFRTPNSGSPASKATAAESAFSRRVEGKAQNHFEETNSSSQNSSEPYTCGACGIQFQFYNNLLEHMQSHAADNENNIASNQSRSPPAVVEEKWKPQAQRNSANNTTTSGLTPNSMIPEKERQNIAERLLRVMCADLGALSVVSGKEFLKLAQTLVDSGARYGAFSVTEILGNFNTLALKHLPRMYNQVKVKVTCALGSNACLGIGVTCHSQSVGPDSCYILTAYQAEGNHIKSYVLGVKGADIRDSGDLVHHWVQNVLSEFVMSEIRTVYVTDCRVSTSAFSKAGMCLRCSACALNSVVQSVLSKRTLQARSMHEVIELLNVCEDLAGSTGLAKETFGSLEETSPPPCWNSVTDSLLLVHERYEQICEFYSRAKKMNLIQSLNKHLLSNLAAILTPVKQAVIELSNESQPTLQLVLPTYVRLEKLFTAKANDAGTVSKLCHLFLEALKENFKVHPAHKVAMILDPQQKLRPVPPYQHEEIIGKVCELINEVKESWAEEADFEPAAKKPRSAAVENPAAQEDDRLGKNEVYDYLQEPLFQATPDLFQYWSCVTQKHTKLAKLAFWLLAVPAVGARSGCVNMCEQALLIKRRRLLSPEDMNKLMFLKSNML", "UniProt Q5TAQ9": "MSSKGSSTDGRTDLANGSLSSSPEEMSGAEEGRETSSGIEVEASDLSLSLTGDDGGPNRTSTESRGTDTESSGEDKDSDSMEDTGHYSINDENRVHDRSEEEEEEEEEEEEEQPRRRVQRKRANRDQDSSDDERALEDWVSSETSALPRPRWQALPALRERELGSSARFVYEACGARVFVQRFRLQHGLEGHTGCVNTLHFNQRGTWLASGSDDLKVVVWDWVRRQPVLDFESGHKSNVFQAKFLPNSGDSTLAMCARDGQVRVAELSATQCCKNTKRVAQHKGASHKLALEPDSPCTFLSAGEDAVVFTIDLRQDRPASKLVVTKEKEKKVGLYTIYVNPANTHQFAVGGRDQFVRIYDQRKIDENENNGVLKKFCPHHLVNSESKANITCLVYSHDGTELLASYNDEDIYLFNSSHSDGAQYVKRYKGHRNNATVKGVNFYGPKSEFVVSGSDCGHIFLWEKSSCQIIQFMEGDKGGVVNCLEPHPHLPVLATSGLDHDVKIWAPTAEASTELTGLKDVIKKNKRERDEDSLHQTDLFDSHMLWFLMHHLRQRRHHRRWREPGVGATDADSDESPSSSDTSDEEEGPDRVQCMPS", "UniProt Q9UHR6": "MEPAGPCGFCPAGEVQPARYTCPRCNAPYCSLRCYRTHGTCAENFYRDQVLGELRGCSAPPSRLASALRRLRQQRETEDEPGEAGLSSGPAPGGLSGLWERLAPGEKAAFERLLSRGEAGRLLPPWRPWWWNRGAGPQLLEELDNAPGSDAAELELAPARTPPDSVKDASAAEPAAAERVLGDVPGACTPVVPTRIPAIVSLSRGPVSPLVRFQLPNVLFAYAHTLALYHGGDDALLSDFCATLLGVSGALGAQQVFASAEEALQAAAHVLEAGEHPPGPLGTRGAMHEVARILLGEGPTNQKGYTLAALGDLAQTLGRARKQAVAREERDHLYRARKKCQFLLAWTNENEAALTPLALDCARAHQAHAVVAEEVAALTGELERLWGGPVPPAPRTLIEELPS", "UniProt Q5SVZ6": "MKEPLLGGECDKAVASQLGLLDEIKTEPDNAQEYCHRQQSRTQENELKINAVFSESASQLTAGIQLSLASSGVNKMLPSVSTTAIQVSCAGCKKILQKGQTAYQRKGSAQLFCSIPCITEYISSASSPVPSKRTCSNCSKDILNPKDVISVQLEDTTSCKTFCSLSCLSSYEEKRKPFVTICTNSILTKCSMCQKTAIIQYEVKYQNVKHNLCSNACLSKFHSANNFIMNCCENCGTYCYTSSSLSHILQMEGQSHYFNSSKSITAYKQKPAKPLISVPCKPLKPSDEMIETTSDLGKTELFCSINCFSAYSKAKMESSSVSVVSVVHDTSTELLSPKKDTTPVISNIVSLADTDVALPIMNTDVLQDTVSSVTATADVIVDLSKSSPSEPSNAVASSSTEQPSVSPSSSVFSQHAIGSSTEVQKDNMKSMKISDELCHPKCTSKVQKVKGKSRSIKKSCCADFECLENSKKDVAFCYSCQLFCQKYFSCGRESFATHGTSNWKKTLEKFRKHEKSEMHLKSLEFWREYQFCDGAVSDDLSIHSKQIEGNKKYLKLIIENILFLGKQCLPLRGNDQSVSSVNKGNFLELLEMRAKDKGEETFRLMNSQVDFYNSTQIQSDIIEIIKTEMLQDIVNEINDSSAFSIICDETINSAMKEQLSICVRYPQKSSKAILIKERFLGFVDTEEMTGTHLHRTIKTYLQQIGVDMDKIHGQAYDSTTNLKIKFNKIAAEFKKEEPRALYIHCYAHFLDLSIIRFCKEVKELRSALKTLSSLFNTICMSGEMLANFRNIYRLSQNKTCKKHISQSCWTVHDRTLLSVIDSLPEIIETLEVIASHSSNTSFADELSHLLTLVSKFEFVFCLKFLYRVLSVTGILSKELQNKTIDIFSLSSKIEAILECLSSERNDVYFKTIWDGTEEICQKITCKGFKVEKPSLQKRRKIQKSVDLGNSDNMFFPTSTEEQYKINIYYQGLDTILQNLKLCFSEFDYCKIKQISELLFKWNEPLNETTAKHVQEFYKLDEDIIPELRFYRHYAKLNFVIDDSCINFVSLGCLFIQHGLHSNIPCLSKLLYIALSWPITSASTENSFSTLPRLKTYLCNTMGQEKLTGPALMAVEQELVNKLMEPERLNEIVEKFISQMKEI"},
  "source": "the supplement of paper PMC7666118",
  "note": "Some of the results follow.",
  "data": [
    {"compound": "COc1ccc(Cn2ccc3cc(C)c(C(=O)NO)cc32)cc1", "assay": "dose-dependent thermal stabilisation call (2D-TPP, DLPTP, 10% FDR) (binary (1 = stabilised)); higher = stabilised by the compound", "details": "system: HL-60 intact cells; concentration range 0.04-10 µM", "protocol": "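2D thermal proteome profiling in intact HL-60 cells treated with BRD-3811 (0, 0.04, 0.29, 2, 10 uM) for 90 min at 37 C, then heated 3 min at one of 12 temperatures (42-63.9 C). Soluble protein was quantified by TMT10 MS. The value is the DLPTP call of the paper: dose-dependent thermal stabilisation over all temperatures at 10% FDR (F-test of a dose-response against a flat model); one experiment, one call per tested protein.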", "values": [
      {"target": "ZFAND1 (UniProt Q8TCF1)", "dose-dependent thermal stabilisation call": "inactive: 0"},
      {"target": "WDR81 (UniProt Q562E7)", "dose-dependent thermal stabilisation call": "inactive: 0"},
      {"target": "ZFYVE20 (UniProt Q9H1K0)", "dose-dependent thermal stabilisation call": "inactive: 0"},
      {"target": "ZNF295 (UniProt Q9ULJ3)", "dose-dependent thermal stabilisation call": "inactive: 0"},
      {"target": "XAB2 (UniProt Q9HCS7)", "dose-dependent thermal stabilisation call": "inactive: 0"},
      {"target": "WDR7 (UniProt Q9Y4E6)", "dose-dependent thermal stabilisation call": "inactive: 0"},
      {"target": "XPO4 (UniProt Q9C0E2)", "dose-dependent thermal stabilisation call": "inactive: 0"},
      {"target": "ZMIZ2 (UniProt Q8NF64)", "dose-dependent thermal stabilisation call": "inactive: 0"},
      {"target": "ZNF280C (UniProt Q8ND82)", "dose-dependent thermal stabilisation call": "inactive: 0"},
      {"target": "ZDHHC17 (UniProt Q8IUH5)", "dose-dependent thermal stabilisation call": "inactive: 0"},
      {"target": "YARS2 (UniProt Q9Y2Z4)", "dose-dependent thermal stabilisation call": "inactive: 0"},
      {"target": "ZNF644 (UniProt Q9H582)", "dose-dependent thermal stabilisation call": "inactive: 0"},
      {"target": "WDSUB1 (UniProt Q8N9V3)", "dose-dependent thermal stabilisation call": "inactive: 0"},
      {"target": "XK (UniProt P51811)", "dose-dependent thermal stabilisation call": "inactive: 0"},
      {"target": "YTHDF2 (UniProt Q9Y5A9)", "dose-dependent thermal stabilisation call": "inactive: 0"},
      {"target": "XPO5 (UniProt Q9HAV4)", "dose-dependent thermal stabilisation call": "inactive: 0"},
      {"target": "ZNF131 (UniProt P52739)", "dose-dependent thermal stabilisation call": "inactive: 0"},
      {"target": "ZMAT2 (UniProt Q96NC0)", "dose-dependent thermal stabilisation call": "inactive: 0"},
      {"target": "WDR45L (UniProt Q5MNZ6)", "dose-dependent thermal stabilisation call": "inactive: 0"},
      {"target": "ZMPSTE24 (UniProt O75844)", "dose-dependent thermal stabilisation call": "inactive: 0"},
      {"target": "ZC3H7B (UniProt Q9UGR2)", "dose-dependent thermal stabilisation call": "inactive: 0"},
      {"target": "YKT6 (UniProt O15498)", "dose-dependent thermal stabilisation call": "inactive: 0"},
      {"target": "ZC3H8 (UniProt Q8N5P1)", "dose-dependent thermal stabilisation call": "inactive: 0"},
      {"target": "WNK1 (UniProt Q9H4A3)", "dose-dependent thermal stabilisation call": "inactive: 0"},
      {"target": "WDR44 (UniProt Q5JSH3)", "dose-dependent thermal stabilisation call": "inactive: 0"},
      {"target": "mTOR (UniProt P42345)", "dose-dependent thermal stabilisation call": "inactive: 0"},
      {"target": "WWP2 (UniProt O00308)", "dose-dependent thermal stabilisation call": "inactive: 0"},
      {"target": "YBX1 (UniProt P67809)", "dose-dependent thermal stabilisation call": "inactive: 0"},
      {"target": "ZNF618 (UniProt Q5T7W0)", "dose-dependent thermal stabilisation call": "inactive: 0"},
      {"target": "ZFR (UniProt Q96KR1)", "dose-dependent thermal stabilisation call": "inactive: 0"},
      {"target": "WDR42A (UniProt Q5TAQ9)", "dose-dependent thermal stabilisation call": "inactive: 0"},
      {"target": "ZNHIT2 (UniProt Q9UHR6)", "dose-dependent thermal stabilisation call": "inactive: 0"},
      {"target": "YEATS4 (UniProt O95619)", "dose-dependent thermal stabilisation call": "inactive: 0"},
      {"target": "ZMYM1 (UniProt Q5SVZ6)", "dose-dependent thermal stabilisation call": "inactive: 0"},
      {"target": "ZFP91 (UniProt Q96JP5)", "dose-dependent thermal stabilisation call": "inactive: 0"},
      {"target": "ZAK (UniProt Q9NYL2)", "dose-dependent thermal stabilisation call": "inactive: 0"}
    ]}
  ]
}
